The assay deals with P388 leukemia ip, CD2F1 mice, survival T/C. Nature of the assay: NCI In Vivo Anticancer Drug Screen. Data for tumor model P388 Leukemia (intraperitoneal) in CD2F1 (CDF1) mice. The settings on record: T/C endpoint: median survival time, higher T/C = longer survival.
The mark [1] stands for this setting: dose: 200.0 mg/kg/injection, schedule: Q01DX009 (ip), vehicle: water.
Setting [2] is: dose: 50.0 mg/kg/injection, schedule: Q01DX005 (ip), vehicle: saline with Tween-80.
[3] abbreviates: dose: 100.0 mg/kg/injection, schedule: Q01DX005 (ip), vehicle: saline with Tween-80.
[4] abbreviates: dose: 200.0 mg/kg/injection, schedule: Q01DX005 (ip), vehicle: saline with Tween-80.

SMILES strings stand for the structures. The list does not hold the whole screen: it is rich in T/C values a quarter to a half above the control, in often repeated tests (any T/C) and in doses without a T/C. Other doses and runs of a compound stand elsewhere. T/C is the treated group as % of the vehicle group. Some entries give survivors of the animals treated and no T/C: the source files T/C as zero there, which appears to mark a toxic dose or a test without result, not a measured value. Some survivor counts are full or nearly so, which does not show that the dose was tolerated: survival well below the control is almost never listed, so the zero probably covers shortened survival too. Survivors were counted at the toxicity check, usually on the fifth day, unless a day is given; later deaths do not show. Schedule codes are those of the source, read here as Q, the interval in days (D) or hours (H), X, the number of doses. Some doses were run more than once; the values are given in rising order. Some molecules as drawn cover several salts, stereoisomers or complexes of the source; a dose is that of the sample tested. Where survival is the endpoint, this PubChem deposit counts one and a half times the control or more as active, and values a quarter to a half above the control carry no call in these data; other NCI protocols may use other cut-offs. Some T/C values carry the count of animals alive at the toxicity check (mostly the fifth day); where none is given, no animal had died by that day.

With `O=NN(CCCl)C(=O)NCCSSCCNC(=O)N(CCCl)N=O` (tested in a mixture with another compound), the T/C runs as follows: (dose: 3.12 mg/kg/injection, schedule: Q01DX005 (ip), vehicle: Klucel (hydroxypropylcellulose) (HPC)) 125 % of control; (dose: 6.25 mg/kg/injection, schedule: Q01DX005 (ip), vehicle: Klucel (hydroxypropylcellulose) (HPC)) 128 % of control. Also, the survivor count was 4 of 4 and 6 of 6 (dose: 100.0 mg/kg/injection, schedule: Q01DX005 (ip), vehicle: Klucel (hydroxypropylcellulose) (HPC)); 4 of 6 (dose: 200.0 mg/kg/injection, schedule: Q01DX005 (ip), vehicle: Klucel (hydroxypropylcellulose) (HPC)); 0 of 5 (dose: 400.0 mg/kg/injection, schedule: Q01DX005 (ip), vehicle: Klucel (hydroxypropylcellulose) (HPC)).

Regarding `CCCCCC1([N+](=O)[O-])CN(C)CC2CCCCN2C1` (stereo not drawn), the survivor count (dose: 400.0 mg/kg/injection, schedule: Q04DX002 (ip), vehicle: saline) is reported as 4 of 6.

For the compound `CC(C)CC(NC(=O)C(N)Cc1c[nH]c2ccccc12)C(N)=O` (stereo not drawn), for the setting “dose: 100.0 mg/kg/injection, schedule: Q04DX003 (ip), vehicle: saline”, the survivor count is given as 6 of 6.

With `Oc1nc(-c2ccccc2)sc1-c1ccc(Cl)cc1`, the survivor count was 6 of 6 (dose: 50.0 mg/kg/injection, schedule: Q01DX009 (ip), vehicle: saline with Tween-80) and 6 of 6 (dose: 100.0 mg/kg/injection, schedule: Q01DX009 (ip), vehicle: saline with Tween-80).

As to `ClCC[N+]12CC[N+](CCCl)(CC1)C2` (tested in a mixture with another compound), the T/C is, setting by setting: (dose: 25.0 mg/kg/injection, schedule: Q01DX009 (ip), vehicle: water) 127 % of control; (dose: 50.0 mg/kg/injection, schedule: Q01DX005 (ip), vehicle: saline) 129 and 132 % of control; (dose: 50.0 mg/kg/injection, schedule: Q01DX009 (ip), vehicle: water) 132 % of control. Further, the survivor count was 5 of 6 under setting [1] and 0 of 5 (dose: 400.0 mg/kg/injection, schedule: Q01DX005 (ip), vehicle: saline).

Take `Cc1cc(NCCCCCCCCNc2cc(C)nc3cc(N(C)C)ccc23)c2ccc(N(C)C)cc2n1`: under “dose: 50.0 mg/kg/injection, schedule: Q04DX002 (ip), vehicle: distilled water + Tween-80 + alcohol”, the T/C is 142 % of control. The survivor count reads like this: (dose: 100.0 mg/kg/injection, schedule: Q04DX002 (ip), vehicle: distilled water + Tween-80 + alcohol) 1 of 6; (dose: 200.0 mg/kg/injection, schedule: Q04DX002 (ip), vehicle: distilled water + Tween-80 + alcohol) 0 of 6; (dose: 400.0 mg/kg/injection, schedule: Q04DX002 (ip), vehicle: distilled water + Tween-80 + alcohol) 0 of 6.

For `CC(=O)N/N=C/C(C)(C)C(C)(C)/C=N/NC(C)=O`, the T/C was 129 % of control (dose: 30.0 mg/kg/injection, schedule: Q01DX005 (ip), vehicle: Klucel (hydroxypropylcellulose) (HPC)); 136 and 139 % of control (dose: 60.0 mg/kg/injection, schedule: Q01DX005 (ip), vehicle: Klucel (hydroxypropylcellulose) (HPC)); 141 % of control (dose: 120.0 mg/kg/injection, schedule: Q01DX005 (ip), vehicle: Klucel (hydroxypropylcellulose) (HPC)). The survivor count (dose: 240.0 mg/kg/injection, schedule: Q01DX005 (ip), vehicle: Klucel (hydroxypropylcellulose) (HPC)) is reported as 0 of 6.

For `O=C1C=C(C2=CC(=O)c3cccc(O)c3C2=O)C(=O)c2c(O)cccc21`, the survivor count (dose: 25.0 mg/kg/injection, schedule: Q01DX009 (ip), vehicle: Klucel (hydroxypropylcellulose) (HPC)) is reported as 1 of 6; the survivor count (dose: 50.0 mg/kg/injection, schedule: Q01DX009 (ip), vehicle: Klucel (hydroxypropylcellulose) (HPC)) is on record as 0 of 6; the survivor count (dose: 100.0 mg/kg/injection, schedule: Q01DX009 (ip), vehicle: Klucel (hydroxypropylcellulose) (HPC)) is given as 0 of 6; the survivor count (dose: 200.0 mg/kg/injection, schedule: Q01DX009 (ip), vehicle: Klucel (hydroxypropylcellulose) (HPC)) is given as 0 of 6.

Take `C1CCNCC1.CC(=O)[C-](C(C)=O)c1ccccc1.CC(=O)[C-](C(C)=O)c1ccccc1.CC(=O)[C-](C(C)=O)c1ccccc1.CC(=O)[C-](C(C)=O)c1ccccc1.[Eu+3]`: the survivor count (dose: 200.0 mg/kg/injection, schedule: Q04DX002 (ip), vehicle: Klucel (hydroxypropylcellulose) (HPC)) is on record as 6 of 6.

`C[N+](C)(Cc1ccccc1)[N-]C(=N)c1ccccc1`: the survivor count runs as follows: (dose: 200.0 mg/kg/injection, schedule: Q04DX003 (ip), vehicle: Klucel (hydroxypropylcellulose) (HPC)) 0 of 6; (dose: 400.0 mg/kg/injection, schedule: Q04DX003 (ip), vehicle: Klucel (hydroxypropylcellulose) (HPC)) 0 of 6.

As for `CN1CCC(CO)C1` (stereo not drawn), the survivor count is, setting by setting: (dose: 100.0 mg/kg/injection, schedule: Q01DX009 (ip), vehicle: water) 5 of 6; under setting [1], 2 of 6.

For `CCCCCCCCCC[N+](C)([O-])CCCCCC[N+](C)([O-])CCCCCCCCCC` (stereo not drawn), the survivor count (dose: 200.0 mg/kg/injection, schedule: Q04DX003 (ip), vehicle: saline with Tween-80) was 0 of 6.

For `CC(C)NC(=O)OCc1cn2c(c1COC(=O)NC(C)C)CCC2`, the T/C runs as follows: (dose: 25.0 mg/kg/injection, schedule: Q01DX005 (ip), vehicle: saline with Tween-80) 128 % of control [5 of 6 alive]; under setting [2], 126 [5 of 6 alive] and 133 % of control. Moreover, the survivor count under setting [3] was 1 of 6 and 3 of 6.

Consider `CC(=O)C[n+]1ccccc1Sc1ccc(Cl)cc1`, for which, under setting [4], the survivor count is recorded as 0 of 5.

With `C=CC1CCCC[N+]1(C)Cc1ccccc1` (stereo not drawn), the survivor count was 2 of 6 (dose: 25.0 mg/kg/injection, schedule: Q01DX005 (ip), vehicle: saline); 0 of 6 under setting [2]; 0 of 6 under setting [3]; 0 of 6 under setting [4].

In the case of `CC(=O)NC1=CC(=Nc2ccc(N(C)C)cc2)C=CC1=O`, the survivor count under setting [2] was 0 of 5, the survivor count under setting [3] is 0 of 5 and the survivor count under setting [4] was 0 of 5.

The record behind these values is PubChem BioAssay AID330 (DTP/NCI, 2004).
